PubChem BioAssay AID1159584, Peter MacCallum Cancer Centre, 2016
Screen: 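Genes that CDH1-null MCF10A cells selectively depend on to survive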 (primary screen). System: human MCF10A breast epithelial cells, parental and CDH1-null. Reagents: siRNA against human genes. Read-out: 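Cell viability by CellTiter-Glo ATP luminescence, each line scaled to the mean of mock wells across plates, then CDH1-null over parental ratio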. Direction: CDH1-null / parental viability ratio: higher = CDH1-null cells survive relatively better than parental.
Shown is one part, drawn at random, of about 18,000 reagents. Not all columns of the deposit are shown. Not stated in the record: the amount of reagent, the time to read-out.

For GBP7 the deposit lists CDH1-null / parental viability ratio 1.
For PRMT9, the entry reads CDH1-null / parental viability ratio 1.29.
YWHAB gave CDH1-null / parental viability ratio 0.87.
Against ODAD2, the values are CDH1-null / parental viability ratio 1.05.
UBB showed CDH1-null / parental viability ratio 0.68.
For EFHD2 the deposit lists CDH1-null / parental viability ratio 1.45.
DNAJA4 scored CDH1-null / parental viability ratio 1.08.
Depletion of ABCB1 came out at: CDH1-null / parental viability ratio 1.02.
For PDRG1 the deposit lists CDH1-null / parental viability ratio 0.89.
Depletion of PPIF came out at: CDH1-null / parental viability ratio 1.27.
After knock-down of ARPC3 the results were CDH1-null / parental viability ratio 0.81.
After knock-down of IMPDH2, the record shows CDH1-null / parental viability ratio 1.02.
Knock-down of FANCG came out at: CDH1-null / parental viability ratio 0.98.
Depletion of IRAK1BP1 came out at: CDH1-null / parental viability ratio 0.59.
Against ALKAL1 the deposit lists CDH1-null / parental viability ratio 1.14.
For ZNF569, the entry reads CDH1-null / parental viability ratio 1.2.
For GPN3, the values are CDH1-null / parental viability ratio 1.31.
With knock-down of TSPAN17, the record shows CDH1-null / parental viability ratio 1.23.
After knock-down of DNAJC16, the record shows CDH1-null / parental viability ratio 1.04.
After knock-down of MICOS10, the record shows CDH1-null / parental viability ratio 1.08.
Against AAR2 the deposit lists CDH1-null / parental viability ratio 0.89.
Knock-down of HOOK3 gave: CDH1-null / parental viability ratio 0.67.
C1QB scored CDH1-null / parental viability ratio 1.23.
TAF15 scored CDH1-null / parental viability ratio 0.98.
Silencing of TMEM59L came out at: CDH1-null / parental viability ratio 0.92.
Against ZNF302, the entry reads CDH1-null / parental viability ratio 1.33.
Against ARF3, the values are CDH1-null / parental viability ratio 0.82.
CCDC162P showed CDH1-null / parental viability ratio 1.06.
With knock-down of KRT4, the screen gave CDH1-null / parental viability ratio 1.14.
Against CLCN5, the values are CDH1-null / parental viability ratio 1.3.
With knock-down of TMEM263 the results were CDH1-null / parental viability ratio 0.76.
Silencing of LRTM1 came out at: CDH1-null / parental viability ratio 1.03.
With knock-down of GREB1, the record shows CDH1-null / parental viability ratio 0.96.
With knock-down of PCTP, the screen gave CDH1-null / parental viability ratio 1.
KCNE2 showed CDH1-null / parental viability ratio 1.15.
